Test results published in the supplement of paper PMC4604168 (melanoma cell lines).
Some of the results follow. Many values rest on one well or one pass, so single values are uncertain.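 Imaging used 1,536-well plates; nuclei positive for cleaved PARP by antibody were divided by total DNA-stained nuclei to yield the apoptosis fraction. Doses for screening kept most cells viable, and cell lines differ markedly in resting and induced cleaved-PARP levels.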

Legend:
Assay in all cases: cleaved PARP positive nuclei fraction relative to DMSO control; melanoma cells; higher = more apoptosis
Settings in all cases: library dose: low library concentration; 72 h
501Mel = tested on: 501Mel
A101D = tested on: A101D
A2058 = tested on: A2058
A375 = tested on: A375
C32 = tested on: C32
CBRC008 = tested on: CBRC008 (line from a melanoma biopsy)
CBRC013 = tested on: CBRC013 (line from a melanoma biopsy)
CBRC014 = tested on: CBRC014 (line from a melanoma biopsy)
CBRC016 = tested on: CBRC016 (line from a melanoma biopsy)
CBRC017 = tested on: CBRC017 (line from a melanoma biopsy)
COLO792 = tested on: COLO792
COLO800 = tested on: COLO800
COLO829 = tested on: COLO829
G361 = tested on: G361
IPC-298 = tested on: IPC-298
IST-MEL1 = tested on: IST-MEL1
LB2518-MEL = tested on: LB2518-MEL
LOXIMVI = tested on: LOXIMVI
MEL-HO = tested on: MEL-HO
CBRC034 = tested on: CBRC034 (line from a melanoma biopsy)

SMILES	cleaved PARP positive nuclei fraction (501Mel) [%]	cleaved PARP positive nuclei fraction (A101D) [%]	cleaved PARP positive nuclei fraction (A2058) [%]	cleaved PARP positive nuclei fraction (A375) [%]	cleaved PARP positive nuclei fraction (C32) [%]	cleaved PARP positive nuclei fraction (CBRC008) [%]	cleaved PARP positive nuclei fraction (CBRC013) [%]	cleaved PARP positive nuclei fraction (CBRC014) [%]	cleaved PARP positive nuclei fraction (CBRC016) [%]	cleaved PARP positive nuclei fraction (CBRC017) [%]	cleaved PARP positive nuclei fraction (COLO792) [%]	cleaved PARP positive nuclei fraction (COLO800) [%]	cleaved PARP positive nuclei fraction (COLO829) [%]	cleaved PARP positive nuclei fraction (G361) [%]	cleaved PARP positive nuclei fraction (IPC-298) [%]	cleaved PARP positive nuclei fraction (IST-MEL1) [%]	cleaved PARP positive nuclei fraction (LB2518-MEL) [%]	cleaved PARP positive nuclei fraction (LOXIMVI) [%]	cleaved PARP positive nuclei fraction (MEL-HO) [%]	cleaved PARP positive nuclei fraction (CBRC034) [%]
C[C@@H](Oc1cc(-c2cnn(C3CCNCC3)c2)cnc1N)c1c(Cl)ccc(F)c1Cl [Crizotinib] + Cn1cncc1[C@@](N)(c1ccc(Cl)cc1)c1ccc2c(c1)c(-c1cccc(Cl)c1)cc(=O)n2C [tipifarnib] (first compound 0.2 µM, partner dose 0.01 µM)	92.2	87.1	87.8	55.8	241	117	114	91.3	48.7	106	67.9	98.3	33.7	124	155	107	127	148	96.2	
Nc1nc(F)nc2c1ncn2[C@@H]1O[C@H](CO)[C@@H](O)[C@@H]1O [fludarabine] + Cc1ccc(NC(=O)c2cccc(N(C)C)c2)cc1NC(=O)c1ccc(O)cc1 [ZM336372] (first compound 0.2 µM, partner dose 2 µM)	522	83.4	125	16100	91.7	77.9	74.9	128	91.6	91.9	83	48	50.9	136	57.1	37.3	113	215	70.9	
CN1CCN(c2ccc3nc(-c4c(N)c5c(F)cccc5[nH]c4=O)[nH]c3c2)CC1 [Dovitinib] + OCCn1cc(-c2cnc3nnn(Cc4ccc5ncccc5c4)c3n2)cn1 [PF04217903] (first compound 0.1 µM, partner dose 1 µM)	104	88.7	273	117	84.6	78.5	105	101	87	100	163	65.2	96.6	181	92.7	49.3	110	98.9	126	
Nc1ccn([C@@H]2O[C@H](CO)[C@@H](O)C2(F)F)c(=O)n1 [gemcitabine] + NC(=O)Nc1cc(-c2cccc(F)c2)sc1C(=O)N[C@H]1CCCNC1 [AZD7762] (first compound 0.0004 µM, partner dose 0.02 µM)	196	106	43.3	133	140	253	105	218	291	178	213	115	213	57.8	338	139	106	72.4	168	
C[C@@H](Oc1cc(-c2cnn(C3CCNCC3)c2)cnc1N)c1c(Cl)ccc(F)c1Cl [Crizotinib] + CS(=O)(=O)CCNCc1ccc(-c2ccc3ncnc(Nc4ccc(OCc5cccc(F)c5)c(Cl)c4)c3c2)o1 [lapatinib] (first compound 0.2 µM, partner dose 0.8 µM)	53.6	58.7	99.7	113	76.5	163		86.4	365	108	111	147	200	75.7	126	62.7	107	40.4	117	69.9
CS(=O)(=O)CCNCc1ccc(-c2ccc3ncnc(Nc4ccc(OCc5cccc(F)c5)c(Cl)c4)c3c2)o1 [lapatinib] + Clc1ccc(Nc2nnc(Cc3ccncc3)c3ccccc23)cc1 [vatalanib] (first compound 0.8 µM, partner dose 2 µM)	138	46.7	74	57.1	74.7	171		196	72.9	121	116	20.3	136	134	125	148	52.4	121	68.5	144
CS(=O)(=O)CCNCc1ccc(-c2ccc3ncnc(Nc4ccc(OCc5cccc(F)c5)c(Cl)c4)c3c2)o1 [lapatinib] + CC(=O)c1c(C)c2cnc(Nc3ccc(N4CCNCC4)cn3)nc2n(C2CCCC2)c1=O [palbociclib] (first compound 0.8 µM, partner dose 0.04 µM)	122	144	109	203	98.4	38.5		104	104	120	135	66.9	75.1	66.6	58	148	65.4	48.1	169	35.8
